According to PMC9912839:
Results are given in words; binding and its absence hold for the method and conditions named. In cells and extracts the contact can be indirect. Some entries that bind do so weakly or less than the wild type.

Biological target: T1, endogenous caspase-11 of BMDMs (mouse (endogenous in BMDMs)) (UniProt P70343)
T1 sequence: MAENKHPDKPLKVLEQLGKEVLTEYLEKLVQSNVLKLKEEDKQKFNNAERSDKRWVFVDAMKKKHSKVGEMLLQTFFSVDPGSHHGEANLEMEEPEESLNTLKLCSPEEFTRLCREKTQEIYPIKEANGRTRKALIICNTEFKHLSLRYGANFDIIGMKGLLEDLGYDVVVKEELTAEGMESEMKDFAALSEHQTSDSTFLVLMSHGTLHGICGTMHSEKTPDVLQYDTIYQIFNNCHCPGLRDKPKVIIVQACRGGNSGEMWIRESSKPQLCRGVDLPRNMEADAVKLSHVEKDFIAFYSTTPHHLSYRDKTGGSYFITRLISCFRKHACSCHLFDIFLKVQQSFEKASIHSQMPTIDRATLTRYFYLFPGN
Assay: co-IP; endogenous proteins; BMDMs stimulated for 6 h with or without LPS, whole cell lysates immunoprecipitated with caspase-11 antibody, blot with anti-S1P antibody

binding: binds
B1: endogenous pro-S1P of BMDMs (enzyme, UniProt Q9WTZ2 23-1052)
chain: DRLGTRALEKAPCPSCSHLTLKVEFSSTVVEYEYIVAFNGYFTAKARNSFISSALKSSEVENWRIIPRNNPSSDYPSDFEVIQIKEKQKAGLLTLEDHPNIKRVTPQRKVFRSLKFAESNPIVPCNETRWSQKWQSSRPLKRASLSLGSGFWHATGRHSSRRLLRAIPRQVAQTLQADVLWQMGYTGANVRVAVFDTGLSEKHPHFKNVKERTNWTNERTLDDGLGHGTFVAGVIASMRECQGFAPDAELHIFRVFTNNQVSYTSWFLDAFNYAILKKMDVLNLSIGGPDFMDHPFVDKVWELTANNVIMVSAIGNDGPLYGTLNNPADQMDVIGVGGIDFEDNIARFSSRGMTTWELPGGYGRVKPDIVTYGAGVRGSGVKGGCRALSGTSVASPVVAGAVTLLVSTVQKRELVNPASVKQALIASARRLPGVNMFEQGHGKLDLLRAYQILSSYKPQASLSPSYIDLTECPYMWPYCSQPIYYGGMPTIVNVTILNGMGVTGRIVDKPEWRPYLPQNGDNIEVAFSYSSVLWPWSGYLAISISVTKKAASWEGIAQGHIMITVASPAETELHSGAEHTSTVKLPIKVKIIPTPPRSKRVLWDQYHNLRYPPGYFPRDNLRMKNDPLDWNGDHVHTNFRDMYQHLRSMGYFVEVLGAPFTCFDATQYGTLLLVDSEEEYFPEEIAKLRRDVDNGLSLVIFSDWYNTSVMRKVKFYDENTRQWWMPDTGGANIPALNELLSVWNMGFSDGLYEGEFVLANHDMYYASGCSIAKFPEDGVVITQTFKDQGLEVLKQETAVVENVPILGLYQIPSEGGGRIVLYGDSNCLDDSHRQKDCFWLLDALLQYTSYGVTPPSLSHSGNRQRPPSGAGLAPPERMEGNHLHRYSKVLEAHLGDPKPRPLPACPHLSWAKPQPLNETAPSNLWKHQKLLSIDLDKVVLPNFRSNRPQVRPLSPGESGAWDIPGGIMPGRYNQEVGQTIPVFAFLGAMVALAFFVVQISKAKSRPKRRRPRAKRPQLAQQAHPARTPSV
